The record followed here is PubChem BioAssay AID2810 (NMMLSC, 2010).

A short description of the assay: modulators of CD8 T cell-vesicle binding, confirmation, cherry-picked primary hits, two concentrations (AID 2810).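 For all read-outs here: lower values mean blocking of vesicle binding.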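 For percent response (vesicle binding): ratio of mean FL2 vesicle stain of CD8+ cells to that row's control.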 The note with it: 2C CD8+ T cell-vesicle binding, flow cytometry; for double positive events: CD8+/vesicle+ events. A general note: Flow cytometry measures light scatter and fluorescence of single cells or particles in a stream.
[1] abbreviates: at 15.4 µM, stronger effect = lower value.

This is one part of the list. The main result of the screen is listed elsewhere. These columns were measured beside it and carry no call.

As for `COc1ccccc1CC(=O)Nc1ccccc1C(=O)O`, for the setting “at 7.7 µM”, the double positive events was found to be 43% and the percent response (vesicle binding) is 314%. Further, the double positive events under setting [1] amounted to 32.8%.
Consider `C[C@@H]1COC(=O)[C@H](Cc2ccc(F)cc2)CC/C=C\C[C@@H](CC(=O)NCCO)C(=O)N1`, for which, under “at 7.7 µM”, the double positive events is 38.9% and the percent response (vesicle binding) was found to be 427%. Also, the double positive events under setting [1] is 20.7%.
Where the note is “at 7.7 µM”, `Cc1cc(Br)c(NC(=O)c2c(-c3c(Cl)cccc3Cl)noc2C)c(Br)c1` showed a double positive events of 13.2% and a percent response (vesicle binding) of 137%. The double positive events under setting [1] came out at 24.2%.
The corresponding values for `Cc1cccc(OCC(=O)Nc2ccccc2C(=O)N2CCOCC2)c1` are 14.9%, 196% and 4.9%.
The corresponding values for `COc1ccc(N2CCN(C(CNC(=O)C(=O)NCCC3=CCCCC3)c3ccco3)CC2)cc1` (centres undefined) are 28.8%, 237% and 12.6%.
In the same order, the values of `CN(C)c1ccc(N=Cc2nc(-c3ccccc3)oc2OC(=O)c2ccccc2)cc1` are 9.5%, 156% and 35.5%.
Under “at 7.7 µM”, `CCCC(=O)NC(c1ccco1)c1cc([N+](=O)[O-])c2cccnc2c1O` (centres undefined) gave a double positive events of 10.1% and a percent response (vesicle binding) of 255%. The double positive events under setting [1] turned out to be 13.9%.
The corresponding values for `CCC(=O)c1ccc2c(c1)OCCO2` are 31.7%, 220% and 10.4%.
The corresponding values for `CCOC1(c2ccccc2)CC1C(=O)N/N=C/c1cccc([N+](=O)[O-])c1` (centres undefined) are 21.2%, 130% and 15.8%.
`Cc1c(Cl)cccc1NC(=O)c1cc(C2CC2)on1`: where the note is “at 7.7 µM”, the double positive events is 21.8% and the percent response (vesicle binding) stood at 244%. This compound displayed a double positive events under setting [1] of 7.9%.
In the same order, the values of `COCCNc1nc2nonc2nc1N1C[C@H]2CC[C@H]1C2` are 39.5%, 320% and 14.5%.
In the case of `CCCCCCCN(C(=O)CCl)c1ccccc1C`, under “at 7.7 µM”, the double positive events amounted to 20.3% and the percent response (vesicle binding) worked out at 225%. The double positive events under setting [1] worked out at 8.2%.
In the same order, the values of `O=C(c1ccc([N+](=O)[O-])o1)N(Cc1nnc(-c2ccccc2Cl)o1)C1CC1` are 17.6%, 108% and 15%.
For the compound `COc1ccc(/C=N/NC(=O)c2ccco2)cc1Cn1nc(C)cc1C`, the double positive events reads like this: (at 7.7 µM) 33.2%; under setting [1], 16.6%. The compound also came in with a percent response (vesicle binding) (at 7.7 µM) of 337%.
For the compound `Cn1cccc1C(=O)NNC(=O)c1ccccc1Br`, where the note is “at 7.7 µM”, the double positive events was determined as 9.2% and the percent response (vesicle binding) came out at 142%. For the same compound, the double positive events under setting [1] is 25.4%.
In the same order, the values of `O=C(NC1CCCC1)C1CC(c2ccc(F)cc2)=NO1` (centres undefined) are 36.6%, 248% and 13.2%.
The corresponding values for `CCOC(=O)c1cn(Cc2cccc(C)c2)nn1` are 21.7%, 755% and 20.3%.
In the same order, the values of `Cc1nc(NC(=O)CSc2nc3cccnc3n2Cc2ccccc2)sc1C` are 30.8%, 121% and 23.9%.
As to `O=C(/C=C/c1ccc(F)cc1)N1CC[C@@]2(O)CCCC[C@H]2C1`, the double positive events came to 27.6% (at 7.7 µM) and 15.1% under setting [1]. Also, the percent response (vesicle binding) (at 7.7 µM) came to 138%.
The corresponding values for `O=C1N=c2ccccc2=C1c1[nH]c(=S)[nH]c1O` are 10.4%, 22.7% and 287%.
In the same order, the values of `CCOc1ccc(S(=O)(=O)N2CCC(C(=O)Nc3cc(S(C)(=O)=O)ccc3Cl)CC2)cc1` are 16.6%, 15.1% and 525%.
Where the note is “at 7.7 µM”, `COC(=O)C(Cc1ccccc1)NC(=O)CNC(=O)c1ccc(Br)o1` (centres undefined) came in with a double positive events of 27.5% and a percent response (vesicle binding) of 460%. The same compound registered a double positive events under setting [1] of 19.2%.
The corresponding values for `CCN(C(=O)c1cc2c(=O)[nH]c3ccc(C)cc3c2s1)c1cccc(C)c1` are 10.6%, 134% and 31.3%.
